The text below walks through data of the SangsterLogP compilation.

Usually logP stands for a log measure of how a compound divides between an organic and an aqueous phase. Low values mean lower lipophilicity, high ones higher lipophilicity. Compound `O=C(Nc1ccccc1)c1ccccc1` came in with a logP of 2.49.
